# Some of the results follow.
# B1: CALR truncated at D342 (Homo sapiens) (protein)
# chain: EPAVYFKEQFLDGDGWTSRWIESKHKSDFGKFVLSSGKFYGDEEKDKGLQTSQDARFYALSASFEPFSNKGQTLVVQFTVKHEQNIDCGGGYVKLFPNSLDQTDMHGDSEYNIMFGPDICGPGTKKVHVIFNYKGKNVLINKDIRCKDDEFTHLYTLIVRPDNTYEVKIDNSQVESGSLEDDWDFLPPKKIKDPDASKPEDWDERAKIDDPTDSKPEDWDKPEHIPDPDAKKPEDWDEEMDGEWEPPVIQNPEYKGEWKPRQIDNPDYKGTWIHPEIDNPEYSPDPSIYAYDNFGVLGLDLWQVKSGTIFDNFLITNDEAYAEEFGNETWGVTKAAEKQMKD
# Columns and labels:
# Assay in all cases: glycan array binding signal (z-score within array); higher = stronger binding
# Settings in all cases: glycan notation: IUPAC condensed, linker removed
# [1] = target: Fuc(a1-2)Gal
# Method in brief: (§1)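 Arrays were curated from the Consortium for Functional Glycomics database, 3228 in total, and kept only where the protein sequence was available. Binding is expressed as a within-array Z-score. This score was averaged across arrays of the same protein sequence at different concentrations or buffers and across linkers, and negative values can be read as non-binding.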
# [2] = target: Fuc(a1-2)Gal(b1-3)GalNAc
# Method in brief: as §1
# [3] = target: Fuc(a1-2)Gal(b1-3)GalNAc(a1-3)[Fuc(a1-2)]Gal(b1-4)Glc
# Method in brief: as §1
# [4] = target: Fuc(a1-2)Gal(b1-3)GalNAc(a1-3)[Fuc(a1-2)]Gal(b1-4)GlcNAc
# Method in brief: as §1
# [5] = target: Fuc(a1-2)Gal(b1-3)GalNAc(b1-3)Gal
# Method in brief: as §1
# [6] = target: Fuc(a1-2)Gal(b1-3)GalNAc(b1-3)Gal(a1-4)Gal(b1-4)Glc
# Method in brief: as §1
# [7] = target: Fuc(a1-2)Gal(b1-3)GalNAc(b1-4)[Neu5Ac(a2-3)]Gal(b1-4)Glc
# Method in brief: as §1
# [8] = target: Fuc(a1-2)Gal(b1-3)GlcNAc
# Method in brief: as §1
# [9] = target: Fuc(a1-2)Gal(b1-3)GlcNAc(b1-2)Man(a1-3)[Fuc(a1-2)Gal(b1-3)GlcNAc(b1-2)Man(a1-6)]Man(b1-4)GlcNAc(b1-4)GlcNAc
# Method in brief: as §1
# [10] = target: Fuc(a1-2)Gal(b1-3)GlcNAc(b1-2)Man(a1-3)[Fuc(a1-2)Gal(b1-3)GlcNAc(b1-2)Man(a1-6)]Man(b1-4)GlcNAc(b1-4)[Fuc(a1-6)]GlcNAc
# Method in brief: as §1
# [11] = target: Fuc(a1-2)Gal(b1-3)GlcNAc(b1-3)Gal(b1-4)Glc
# Method in brief: as §1
# [12] = target: Fuc(a1-2)Gal(b1-3)GlcNAc(b1-3)GalNAc
# Method in brief: as §1
# [13] = target: Fuc(a1-2)Gal(b1-3)GlcNAc(b1-3)[Fuc(a1-2)Gal(b1-3)GlcNAc(b1-6)]GalNAc
# Method in brief: as §1
# [14] = target: Fuc(a1-2)Gal(b1-3)GlcNAc(b1-3)[Fuc(a1-3)[Gal(b1-4)]GlcNAc(b1-6)]Gal(b1-4)Glc
# Method in brief: as §1
# [15] = target: Fuc(a1-2)Gal(b1-3)GlcNAc(b1-3)[Gal(b1-4)GlcNAc(b1-6)]Gal(b1-4)Glc
# Method in brief: as §1
# [16] = target: Fuc(a1-2)Gal(b1-3)GlcNAc(b1-3)[Neu5Ac(a2-6)Gal(b1-4)GlcNAc(b1-6)]Gal(b1-4)Glc
# Method in brief: as §1
# [17] = target: Fuc(a1-2)Gal(b1-3)GlcNAc6S
# Method in brief: as §1
# [18] = target: Fuc(a1-2)Gal(b1-3)[Fuc(a1-4)]GlcNAc
# Method in brief: as §1
# [19] = target: Fuc(a1-2)Gal(b1-3)[Fuc(a1-4)]GlcNAc(b1-2)Man(a1-3)[Fuc(a1-2)Gal(b1-3)[Fuc(a1-4)]GlcNAc(b1-2)Man(a1-6)]Man(b1-4)GlcNAc(b1-4)GlcNAc
# Method in brief: as §1
# [20] = target: Fuc(a1-2)Gal(b1-3)[Fuc(a1-4)]GlcNAc(b1-2)Man(a1-6)[Fuc(a1-2)Gal(b1-3)[Fuc(a1-4)]GlcNAc(b1-2)Man(a1-3)]Man(b1-4)GlcNAc(b1-4)[Fuc(a1-6)]GlcNAc
# Method in brief: as §1
# [21] = target: Fuc(a1-2)Gal(b1-3)[Fuc(a1-4)]GlcNAc(b1-3)[Fuc(a1-3)[Gal(b1-4)]GlcNAc(b1-6)]Gal(b1-4)Glc
# Method in brief: as §1
# [22] = target: Fuc(a1-2)Gal(b1-3)[Fuc(a1-4)]GlcNAc(b1-3)[Gal(b1-4)GlcNAc(b1-6)]Gal(b1-4)Glc
# Method in brief: as §1
# [23] = target: Fuc(a1-2)Gal(b1-4)Glc
# Method in brief: as §1
# [24] = target: Fuc(a1-2)Gal(b1-4)Glc6S
# Method in brief: as §1
# [25] = target: Fuc(a1-2)Gal(b1-4)GlcNAc
# Method in brief: as §1
# [26] = target: Fuc(a1-2)Gal(b1-4)GlcNAc(b1-2)Man
# Method in brief: as §1
# [27] = target: Fuc(a1-2)Gal(b1-4)GlcNAc(b1-2)Man(a1-3)[Fuc(a1-2)Gal(b1-4)GlcNAc(b1-2)Man(a1-6)]Man(b1-4)GlcNAc(b1-4)GlcNAc
# Method in brief: as §1
# [28] = target: Fuc(a1-2)Gal(b1-4)GlcNAc(b1-2)Man(a1-3)[Fuc(a1-2)Gal(b1-4)GlcNAc(b1-2)Man(a1-6)]Man(b1-4)GlcNAc(b1-4)[Fuc(a1-6)]GlcNAc
# Method in brief: as §1
# [29] = target: Fuc(a1-2)Gal(b1-4)GlcNAc(b1-2)[Fuc(a1-2)Gal(b1-4)GlcNAc(b1-4)]Man(a1-3)[Fuc(a1-2)Gal(b1-4)GlcNAc(b1-2)Man(a1-6)]Man(b1-4)GlcNAc(b1-4)GlcNAc
# Method in brief: as §1
# [30] = target: Fuc(a1-2)Gal(b1-4)GlcNAc(b1-3)Gal(b1-4)GlcNAc
# Method in brief: as §1
binder,measurement,setting,value
B1,glycan array binding signal (z-score),[1],-0.171
same,glycan array binding signal (z-score),[2],0.683
same,glycan array binding signal (z-score),[3],2.69
same,glycan array binding signal (z-score),[4],2.31
same,glycan array binding signal (z-score),[5],-0.668
same,glycan array binding signal (z-score),[6],-0.373
same,glycan array binding signal (z-score),[7],-0.359
same,glycan array binding signal (z-score),[8],-0.475
same,glycan array binding signal (z-score),[9],-0.776
same,glycan array binding signal (z-score),[10],-0.24
same,glycan array binding signal (z-score),[11],-0.803
same,glycan array binding signal (z-score),[12],-1.55
same,glycan array binding signal (z-score),[13],-0.633
same,glycan array binding signal (z-score),[14],-1.53
same,glycan array binding signal (z-score),[15],-0.254
same,glycan array binding signal (z-score),[16],0.712
same,glycan array binding signal (z-score),[17],1.55
same,glycan array binding signal (z-score),[18],0.785
same,glycan array binding signal (z-score),[19],3.18
same,glycan array binding signal (z-score),[20],0.387
same,glycan array binding signal (z-score),[21],1.09
same,glycan array binding signal (z-score),[22],0.169
same,glycan array binding signal (z-score),[23],-0.883
same,glycan array binding signal (z-score),[24],0.748
same,glycan array binding signal (z-score),[25],0.301
same,glycan array binding signal (z-score),[26],-1.98
same,glycan array binding signal (z-score),[27],-0.268
same,glycan array binding signal (z-score),[28],0.591
same,glycan array binding signal (z-score),[29],2.76
same,glycan array binding signal (z-score),[30],-0.209

# For convenience, some entries already given.
binder,measurement,setting,value
B1,glycan array binding signal (z-score),[9],-0.776
same,glycan array binding signal (z-score),[10],-0.24
same,glycan array binding signal (z-score),[11],-0.803
same,glycan array binding signal (z-score),[12],-1.55
same,glycan array binding signal (z-score),[13],-0.633
same,glycan array binding signal (z-score),[14],-1.53
same,glycan array binding signal (z-score),[15],-0.254
